Measured values taken from PMC10325077.
Results are given in words; binding and its absence hold for the method and conditions named. Binding seen in cells or lysates may run through a third protein.

Chains of the proteins cited; added tags and fusions are not shown.
UniProt P19474: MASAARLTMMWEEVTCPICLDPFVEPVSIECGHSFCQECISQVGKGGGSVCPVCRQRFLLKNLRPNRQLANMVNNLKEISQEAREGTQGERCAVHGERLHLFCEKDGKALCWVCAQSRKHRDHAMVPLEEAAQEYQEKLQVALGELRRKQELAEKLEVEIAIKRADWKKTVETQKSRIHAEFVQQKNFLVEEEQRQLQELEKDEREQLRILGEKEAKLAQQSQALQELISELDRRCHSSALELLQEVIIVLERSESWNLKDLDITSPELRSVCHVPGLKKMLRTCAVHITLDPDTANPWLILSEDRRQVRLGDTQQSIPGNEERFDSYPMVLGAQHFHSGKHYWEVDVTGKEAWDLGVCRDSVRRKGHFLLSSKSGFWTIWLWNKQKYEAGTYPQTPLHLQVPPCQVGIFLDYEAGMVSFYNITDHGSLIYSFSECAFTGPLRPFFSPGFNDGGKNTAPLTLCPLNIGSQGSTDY

Key:
[1] = molecular target: Flag-GST-tagged PR8 M1 (influenza A virus A/Puerto Rico/8/34 (PR8)) (UniProt P03485); experiment: co-IP
[2] = molecular target: M1 protein of PR8 virus (in infected cells) (influenza A virus A/Puerto Rico/8/34 (PR8)) (UniProt P03485); experiment: co-IP

Row | Substance | binding [1] | binding [2]
1 | Myc-tagged TRIM21 (tripartite motif-containing protein 21) (from UniProt P19474 1-475) (enzyme) | no binding | –
2 | TRIM21 (endogenous, A549 cells) (from UniProt P19474 1-475) (enzyme) | – | no binding
